The other results are listed elsewhere or left out. Residues, ends and D or L forms follow the SMILES beside them. *: point of attachment. Cbz = O=C(OCc1ccccc1)*
Key:
Assay in all cases: log2 fold change, soluble protein after heating vs DMSO (PISA); higher = thermal stabilisation; K562 cells, 10 uM, 30 min; active = over 0.2 and 3.5 SD of the protein, either way, in both replicates (recomputed)
[1] = compound: C#Cc1cccc(Nc2ncnc3cc(OCCOC)c(OCCOC)cc23)c1 [erlotinib]
How it was run: (§1)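 For each measurement, 10 μM compound was applied for 30 min to K562 cells at 2×10^6 cells/mL. Aliquots were heated for 3 min across 48°C-58°C, pooled, and extracted in PBS with 0.5% NP-40 at 4°C; the supernatant after 21,000xg for 90 min was soluble protein. This was quantified by TMTpro 16plex LC-MS/MS with channel sums equalised, and thermal stability was reported relative to control samples from duplicates, on a log2 fold-change scale.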

By UniProt entry, the sequences of proteins in these tests, tags left out. Where a name states a change or a piece, a line headed by the entry shows the natural chain unless it says otherwise.
UniProt Q9UI26: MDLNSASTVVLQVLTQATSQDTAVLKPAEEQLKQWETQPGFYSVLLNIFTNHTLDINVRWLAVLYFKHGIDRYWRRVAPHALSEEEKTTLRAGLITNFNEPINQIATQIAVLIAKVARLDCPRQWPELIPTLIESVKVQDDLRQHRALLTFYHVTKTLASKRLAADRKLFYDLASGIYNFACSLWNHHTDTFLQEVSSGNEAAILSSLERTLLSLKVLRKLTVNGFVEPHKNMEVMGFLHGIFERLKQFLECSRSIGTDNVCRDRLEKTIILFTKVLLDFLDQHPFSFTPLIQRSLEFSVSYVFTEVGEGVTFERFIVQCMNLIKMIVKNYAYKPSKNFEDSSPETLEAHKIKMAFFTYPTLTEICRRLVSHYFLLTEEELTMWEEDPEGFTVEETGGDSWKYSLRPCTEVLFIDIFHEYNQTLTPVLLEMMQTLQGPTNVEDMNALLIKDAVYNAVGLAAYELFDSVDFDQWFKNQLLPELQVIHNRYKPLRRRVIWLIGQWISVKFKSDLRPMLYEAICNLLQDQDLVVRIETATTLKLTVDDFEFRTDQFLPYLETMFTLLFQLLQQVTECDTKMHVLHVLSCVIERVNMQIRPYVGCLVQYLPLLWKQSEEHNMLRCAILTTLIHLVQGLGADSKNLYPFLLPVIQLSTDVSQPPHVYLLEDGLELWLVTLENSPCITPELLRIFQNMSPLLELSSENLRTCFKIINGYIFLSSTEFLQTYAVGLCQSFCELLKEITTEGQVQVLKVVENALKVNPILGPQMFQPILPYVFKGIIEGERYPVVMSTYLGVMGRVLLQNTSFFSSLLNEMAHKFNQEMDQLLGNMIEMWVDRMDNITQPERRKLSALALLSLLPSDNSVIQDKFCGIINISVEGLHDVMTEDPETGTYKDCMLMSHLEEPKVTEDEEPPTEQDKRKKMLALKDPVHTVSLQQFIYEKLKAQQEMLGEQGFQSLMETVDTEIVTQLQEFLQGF
UniProt Q6P9B9, whole entry, looked up: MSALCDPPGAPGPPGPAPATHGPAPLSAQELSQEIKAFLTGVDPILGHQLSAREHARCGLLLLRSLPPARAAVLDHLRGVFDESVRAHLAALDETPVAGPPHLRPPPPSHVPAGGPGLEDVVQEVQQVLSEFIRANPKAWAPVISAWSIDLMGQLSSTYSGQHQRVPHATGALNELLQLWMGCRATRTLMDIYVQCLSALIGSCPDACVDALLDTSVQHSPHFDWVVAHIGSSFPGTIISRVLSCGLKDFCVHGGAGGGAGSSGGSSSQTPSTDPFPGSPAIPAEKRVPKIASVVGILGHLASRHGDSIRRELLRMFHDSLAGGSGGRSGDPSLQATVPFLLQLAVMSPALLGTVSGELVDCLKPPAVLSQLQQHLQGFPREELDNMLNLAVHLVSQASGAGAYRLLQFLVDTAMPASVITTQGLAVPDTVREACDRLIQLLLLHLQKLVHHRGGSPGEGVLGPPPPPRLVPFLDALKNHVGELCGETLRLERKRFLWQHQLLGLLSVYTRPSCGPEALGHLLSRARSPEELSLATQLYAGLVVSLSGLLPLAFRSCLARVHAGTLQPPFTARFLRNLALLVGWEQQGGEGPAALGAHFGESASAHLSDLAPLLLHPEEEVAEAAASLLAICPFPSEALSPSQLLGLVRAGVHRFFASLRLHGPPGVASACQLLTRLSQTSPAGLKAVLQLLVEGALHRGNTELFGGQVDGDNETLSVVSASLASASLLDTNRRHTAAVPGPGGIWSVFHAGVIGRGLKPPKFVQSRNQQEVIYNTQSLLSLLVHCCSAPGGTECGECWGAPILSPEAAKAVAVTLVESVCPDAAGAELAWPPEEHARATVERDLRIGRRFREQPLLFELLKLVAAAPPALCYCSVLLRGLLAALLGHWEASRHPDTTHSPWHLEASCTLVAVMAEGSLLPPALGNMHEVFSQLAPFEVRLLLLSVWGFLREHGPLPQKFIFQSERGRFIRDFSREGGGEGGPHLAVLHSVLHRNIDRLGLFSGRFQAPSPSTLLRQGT
UniProt Q14653: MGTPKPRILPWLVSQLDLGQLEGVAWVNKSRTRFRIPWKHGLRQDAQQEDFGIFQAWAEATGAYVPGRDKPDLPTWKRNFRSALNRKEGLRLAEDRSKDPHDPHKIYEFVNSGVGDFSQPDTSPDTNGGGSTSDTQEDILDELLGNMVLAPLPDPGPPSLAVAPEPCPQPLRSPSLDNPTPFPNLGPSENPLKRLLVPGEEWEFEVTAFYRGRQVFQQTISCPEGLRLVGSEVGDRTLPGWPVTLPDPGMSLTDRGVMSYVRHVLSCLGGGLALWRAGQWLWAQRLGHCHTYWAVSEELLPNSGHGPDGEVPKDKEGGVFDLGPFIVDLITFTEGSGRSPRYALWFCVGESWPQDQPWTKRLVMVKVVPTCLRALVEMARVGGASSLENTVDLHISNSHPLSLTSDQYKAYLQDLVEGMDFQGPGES
UniProt Q9NWZ3, whole entry, looked up: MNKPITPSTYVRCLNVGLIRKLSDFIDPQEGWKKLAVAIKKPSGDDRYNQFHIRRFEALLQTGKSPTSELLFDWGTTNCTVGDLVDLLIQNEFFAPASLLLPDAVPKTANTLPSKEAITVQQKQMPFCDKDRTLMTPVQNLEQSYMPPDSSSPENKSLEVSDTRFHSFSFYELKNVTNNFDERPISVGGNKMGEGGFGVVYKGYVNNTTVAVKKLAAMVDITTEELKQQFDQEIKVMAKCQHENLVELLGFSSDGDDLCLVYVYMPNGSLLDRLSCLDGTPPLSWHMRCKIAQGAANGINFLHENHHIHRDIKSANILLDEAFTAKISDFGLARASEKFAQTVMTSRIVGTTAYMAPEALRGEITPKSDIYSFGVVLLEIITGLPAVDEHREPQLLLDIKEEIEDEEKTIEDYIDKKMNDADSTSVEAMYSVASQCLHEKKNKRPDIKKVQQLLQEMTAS
UniProt Q13907: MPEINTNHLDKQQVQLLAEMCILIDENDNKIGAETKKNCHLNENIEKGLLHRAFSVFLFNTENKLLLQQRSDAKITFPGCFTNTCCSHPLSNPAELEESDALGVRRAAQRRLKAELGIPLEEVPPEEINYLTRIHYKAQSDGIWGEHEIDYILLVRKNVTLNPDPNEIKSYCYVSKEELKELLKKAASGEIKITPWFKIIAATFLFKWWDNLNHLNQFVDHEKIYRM
UniProt Q9H1B7, whole entry, looked up: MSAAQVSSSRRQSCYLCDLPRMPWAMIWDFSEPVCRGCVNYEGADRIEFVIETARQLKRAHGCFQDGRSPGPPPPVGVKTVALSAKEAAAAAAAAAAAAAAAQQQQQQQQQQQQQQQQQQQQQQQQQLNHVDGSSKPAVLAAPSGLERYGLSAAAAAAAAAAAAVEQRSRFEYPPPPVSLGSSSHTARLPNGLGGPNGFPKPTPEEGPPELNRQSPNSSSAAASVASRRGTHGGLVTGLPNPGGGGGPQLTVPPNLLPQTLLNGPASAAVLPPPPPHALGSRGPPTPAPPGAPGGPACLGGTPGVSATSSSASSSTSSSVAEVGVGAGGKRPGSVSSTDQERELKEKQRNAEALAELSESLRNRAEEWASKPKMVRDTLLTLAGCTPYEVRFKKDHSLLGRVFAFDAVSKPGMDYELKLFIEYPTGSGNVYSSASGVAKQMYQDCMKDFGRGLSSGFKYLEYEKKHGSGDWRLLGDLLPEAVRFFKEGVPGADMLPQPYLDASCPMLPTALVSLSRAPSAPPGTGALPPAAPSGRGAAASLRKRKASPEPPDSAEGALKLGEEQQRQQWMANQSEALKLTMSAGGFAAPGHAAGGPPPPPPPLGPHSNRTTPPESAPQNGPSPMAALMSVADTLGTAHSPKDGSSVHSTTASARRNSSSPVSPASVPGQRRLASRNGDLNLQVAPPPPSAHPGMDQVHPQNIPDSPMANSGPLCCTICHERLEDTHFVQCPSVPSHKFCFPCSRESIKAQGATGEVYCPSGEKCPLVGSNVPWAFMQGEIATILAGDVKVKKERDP
UniProt P32019: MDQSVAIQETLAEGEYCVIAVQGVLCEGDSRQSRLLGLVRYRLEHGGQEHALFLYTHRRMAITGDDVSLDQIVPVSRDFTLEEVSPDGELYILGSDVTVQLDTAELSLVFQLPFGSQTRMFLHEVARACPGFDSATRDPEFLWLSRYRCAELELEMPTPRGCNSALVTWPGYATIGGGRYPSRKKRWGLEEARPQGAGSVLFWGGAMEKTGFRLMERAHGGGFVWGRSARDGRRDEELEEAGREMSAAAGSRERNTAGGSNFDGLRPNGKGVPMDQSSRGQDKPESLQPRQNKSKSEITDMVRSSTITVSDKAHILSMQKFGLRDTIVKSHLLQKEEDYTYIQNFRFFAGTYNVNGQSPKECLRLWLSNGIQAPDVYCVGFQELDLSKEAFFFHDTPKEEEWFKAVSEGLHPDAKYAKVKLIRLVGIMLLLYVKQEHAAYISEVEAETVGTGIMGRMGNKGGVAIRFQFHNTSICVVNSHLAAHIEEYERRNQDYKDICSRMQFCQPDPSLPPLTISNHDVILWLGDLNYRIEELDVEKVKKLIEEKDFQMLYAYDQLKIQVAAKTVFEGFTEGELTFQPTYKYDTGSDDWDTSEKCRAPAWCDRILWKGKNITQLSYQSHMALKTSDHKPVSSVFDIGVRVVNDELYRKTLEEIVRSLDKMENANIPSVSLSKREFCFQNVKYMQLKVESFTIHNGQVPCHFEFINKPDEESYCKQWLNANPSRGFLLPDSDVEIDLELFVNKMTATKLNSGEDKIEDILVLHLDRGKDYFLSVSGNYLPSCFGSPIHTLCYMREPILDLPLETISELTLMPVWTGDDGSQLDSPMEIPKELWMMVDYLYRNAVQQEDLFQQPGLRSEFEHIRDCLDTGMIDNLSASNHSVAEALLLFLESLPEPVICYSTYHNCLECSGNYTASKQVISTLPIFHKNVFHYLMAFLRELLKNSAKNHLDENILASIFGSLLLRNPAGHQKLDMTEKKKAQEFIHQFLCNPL
UniProt A1L0T0: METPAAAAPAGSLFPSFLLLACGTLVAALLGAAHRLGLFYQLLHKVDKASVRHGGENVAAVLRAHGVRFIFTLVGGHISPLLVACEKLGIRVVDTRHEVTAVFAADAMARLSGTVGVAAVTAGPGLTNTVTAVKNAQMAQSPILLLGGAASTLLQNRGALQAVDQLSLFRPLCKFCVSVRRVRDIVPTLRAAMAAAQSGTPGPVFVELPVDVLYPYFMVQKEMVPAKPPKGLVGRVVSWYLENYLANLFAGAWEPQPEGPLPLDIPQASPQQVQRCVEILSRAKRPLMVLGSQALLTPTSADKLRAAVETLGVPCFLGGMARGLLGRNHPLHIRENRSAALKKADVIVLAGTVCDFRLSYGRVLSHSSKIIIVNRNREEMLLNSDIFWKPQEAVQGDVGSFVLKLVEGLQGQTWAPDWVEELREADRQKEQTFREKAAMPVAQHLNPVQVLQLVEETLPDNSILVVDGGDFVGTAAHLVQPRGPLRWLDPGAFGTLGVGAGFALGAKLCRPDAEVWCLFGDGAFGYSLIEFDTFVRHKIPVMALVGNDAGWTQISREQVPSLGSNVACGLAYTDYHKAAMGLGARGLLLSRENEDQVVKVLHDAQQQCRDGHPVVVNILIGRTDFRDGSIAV

[2] = compound: C/C(=N\NC(=O)C1=CC(=CC=C1)S(=O)(=O)N2CCOCC2)/C3=C(C=CC(=C3)Cl)O
How it was run: as §1

[3] = compound: C1=CC(=C(C=C1Cl)C2=NC3=NC=CN=C3C(=N2)NC4=CC=NC=C4)F
How it was run: as §1

[4] = compound: C1=CC(=CC=C1C2=NC3=C(N2)C=C(C=C3)C(=O)N)OC4=CC=C(C=C4)Cl
How it was run: as §1

[5] = compound: C1=CC2=C(C=CC(=C2)/C=C\3/C(=O)NC(=NCC4=CC=CS4)S3)N=C1
How it was run: as §1

[6] = compound: C1=CC2=NC=CN=C2C=C1/C=C/3\C(=O)NC(=O)S3
How it was run: as §1

[7] = compound: C1=CC=C(C=C1)C2=NC(=C(N2)C3=CC=NC=C3)C4=CC(=C(C=C4)Cl)O
How it was run: as §1

[8] = compound: C1=CC=C2C(=C1)C3=NNC4=CC=CC(=C43)C2=O
How it was run: as §1

[9] = compound: C1CCN(C1)C(=O)NC2=CC=CC(=C2)NC3=NC=C(C(=N3)NCCC4=CN=CN4)Br
How it was run: as §1

[10] = compound: C1CN(CCC1(CC2=CC=C(C=C2)Cl)N)C3=NC=NC4=C3C=CN4
How it was run: as §1

[11] = compound: C1COCCN1CCN2C3=CC=CC=C3N=C2NC(=O)C4=CC(=CC=C4)[N+](=O)[O-] [IRAK-1-4 Inhibitor I]
How it was run: as §1

[12] = compound: C=CC(=O)N1CCC[C@@H](n2nc(-c3ccc(Oc4ccccc4)cc3)c3c(N)ncnc32)C1 [ibrutinib]
How it was run: as §1

[13] = compound: CC(=O)c1cnc2ccc(-c3cc(Cl)c(O)c(Cl)c3)nc2c1N[C@H]1CC[C@H](CN(C)C)CC1
How it was run: as §1

[14] = compound: CC(C)(C)Cn1c(N)nc2ccc(-c3[nH]c(C(C)(C)C)nc3-c3ccc(F)cc3)nc21 [ralimetinib]
How it was run: as §1

[15] = compound: CC(C)(O)CC(=O)NCCn1ccc2ncnc(Nc3ccc(Oc4cccc(C(F)(F)F)c4)c(Cl)c3)c21
How it was run: as §1

[16] = compound: CC(C)C1=C2N=C(C=C(N2N=C1)NCC3=CC=CC=C3)NCCCCCCN
How it was run: as §1

[17] = compound: CC(C)C[C@@H](C=O)NC(=O)[C@H](CC(C)C)NC(=O)[C@H](CC(C)C)NC(=O)OCc1ccccc1
How it was run: as §1

[18] = compound: CC(C)N(C[C@H]1O[C@@H](n2cnc3c(N)ncnc32)[C@H](O)[C@@H]1O)[C@H]1C[C@@H](CCc2nc3cc(C(C)(C)C)ccc3[nH]2)C1 [pinometostat]
How it was run: as §1

[19] = compound: CC1=C(C2=C(C=C1)C(=O)C3=CC=CC=C3N2CCCN)C
How it was run: as §1

| Target | log2 fold change [1] | log2 fold change [2] | log2 fold change [3] | log2 fold change [4] | log2 fold change [5] | log2 fold change [6] | log2 fold change [7] | log2 fold change [8] | log2 fold change [9] | log2 fold change [10] | log2 fold change [11] | log2 fold change [12] | log2 fold change [13] | log2 fold change [14] | log2 fold change [15] | log2 fold change [16] | log2 fold change [17] | log2 fold change [18] | log2 fold change [19] |
| --- | --- | --- | --- | --- | --- | --- | --- | --- | --- | --- | --- | --- | --- | --- | --- | --- | --- | --- | --- |
| ILK (UniProt Q13418) | inactive: 0 | inactive: -0.119 | inactive: -0.086 | inactive: 0.016 | inactive: 0.091 | inactive: 0.002 | inactive: -0.056 | inactive: -0.056 | inactive: 0.068 | inactive: 0.008 | inactive: 0.029 | inactive: 0.004 | inactive: -0.029 | inactive: 0.027 | inactive: -0.081 | inactive: -0.094 | inactive: 0.128 | inactive: 0.083 | inactive: 0.01 |
| IFT74 (UniProt Q96LB3) | inactive: 0.248 | active: -0.95 | inactive: 0.125 | inactive: -0.352 | inactive: 0.087 | inactive: -0.033 | inactive: 0.211 | inactive: -0.038 | inactive: -0.076 | inactive: 0.337 | inactive: 0.067 | inactive: 0.146 | inactive: 0.02 | inactive: 0.27 | inactive: -0.095 | inactive: 0.191 | inactive: 0.076 | inactive: -0.024 | inactive: 0.071 |
| IPO11 isoform 2 (UniProt Q9UI26) | inactive: -0.063 | inactive: 0.066 | inactive: 0.074 | inactive: 0.013 | inactive: 0.016 | inactive: 0.038 | inactive: 0.011 | inactive: -0.023 | inactive: 0.001 | inactive: -0.009 | inactive: 0.011 | inactive: -0.014 | inactive: 0.039 | inactive: -0.016 | inactive: -0.095 | inactive: 0.018 | inactive: -0.039 | inactive: -0.035 | inactive: -0.018 |
| ITIH4 (UniProt Q14624) | inactive: -0.026 | inactive: -0.072 | inactive: 0.029 | inactive: 0.091 | inactive: 0.143 | inactive: -0.039 | inactive: 0.061 | inactive: -0.06 | inactive: -0.009 | inactive: 0.079 | inactive: 0.043 | inactive: 0.147 | inactive: 0.041 | inactive: -0.044 | inactive: 0.17 | inactive: 0.045 | inactive: -0.113 | inactive: -0.117 | inactive: -0.148 |
| INTS5 (UniProt Q6P9B9) | inactive: -0.027 | inactive: 0.025 | active: -0.403 | inactive: -0.086 | inactive: -0.023 | inactive: 0.097 | inactive: -0.138 | inactive: -0.18 | inactive: -0.126 | inactive: -0.033 | inactive: 0.076 | inactive: -0.039 | inactive: 0.529 | inactive: 0.019 | inactive: -0.232 | inactive: 0.052 | inactive: -0.064 | inactive: 0.033 | inactive: 0.073 |
| IRF3 (UniProt Q14653) | inactive: 0.042 | inactive: 0.056 | inactive: 0.019 | inactive: -0.022 | inactive: 0.046 | inactive: -0.022 | inactive: -0.036 | inactive: 0 | inactive: -0.055 | inactive: -0.008 | inactive: 0.002 | inactive: 0.13 | inactive: -0.019 | inactive: -0.037 | inactive: 0 | inactive: -0.065 | inactive: -0.015 | inactive: -0.002 | inactive: 0.02 |
| IRAK4 (UniProt Q9NWZ3) | inactive: 0.041 | inactive: -0.009 | inactive: 0.068 | inactive: -0.038 | inactive: 0.059 | inactive: -0.023 | inactive: 0.011 | inactive: -0.004 | inactive: 0.069 | inactive: -0.074 | inactive: -0.012 | inactive: 0.002 | inactive: 0.196 | inactive: -0.014 | inactive: -0.092 | active: -0.252 | inactive: -0.026 | inactive: 0.065 | inactive: -0.002 |
| IDI1 isoform 2 (UniProt Q13907) | inactive: 0.004 | active: -0.313 | inactive: 0.03 | inactive: -0.012 | inactive: -0.033 | inactive: -0.004 | inactive: -0.038 | inactive: 0.034 | inactive: -0.02 | inactive: 0.002 | inactive: 0.052 | inactive: 0.034 | inactive: -0.01 | inactive: -0.04 | inactive: 0.1 | inactive: 0.077 | inactive: -0.002 | inactive: -0.012 | inactive: -0.099 |
| IRF2BPL (UniProt Q9H1B7) | inactive: -0.021 | inactive: 0.023 | inactive: 0.068 | inactive: 0.04 | inactive: -0.03 | inactive: 0.064 | inactive: 0.089 | inactive: 0.025 | inactive: -0.041 | inactive: -0.022 | inactive: 0.031 | inactive: 0.038 | inactive: 0.008 | inactive: 0.013 | inactive: -0.18 | inactive: 0.076 | inactive: 0.063 | inactive: -0.206 | inactive: 0.093 |
| IGSF8 (UniProt Q969P0) | inactive: -0.013 | inactive: 0.011 | inactive: -0.046 | inactive: 0.065 | inactive: 0.038 | inactive: -0.014 | inactive: -0.077 | inactive: -0.054 | inactive: 0.124 | inactive: -0.088 | inactive: -0.001 | inactive: 0.11 | inactive: -0.094 | inactive: -0.087 | inactive: -0.074 | inactive: 0.19 | inactive: 0.168 | inactive: 0.029 | inactive: 0.213 |
| ILF2 (UniProt Q12905) | inactive: -0.098 | inactive: -0.087 | inactive: -0.214 | inactive: 0.009 | inactive: -0.088 | inactive: 0.066 | inactive: -0.035 | inactive: -0.011 | inactive: -0.005 | inactive: -0.175 | inactive: -0.095 | inactive: 0.027 | inactive: 0.155 | inactive: 0.131 | inactive: 0.082 | inactive: 0.318 | inactive: -0.024 | inactive: 0.064 | inactive: 0.204 |
| INPP5B (UniProt P32019) | inactive: -0.027 | inactive: 0.056 | inactive: 0.071 | inactive: -0.052 | inactive: 0.055 | inactive: -0.018 | inactive: 0.026 | inactive: -0.04 | inactive: -0.064 | inactive: -0.039 | inactive: -0.1 | inactive: -0.048 | inactive: -0.013 | inactive: 0.062 | inactive: -0.053 | active: -0.308 | inactive: 0.122 | inactive: 0.101 | inactive: -0.077 |
| IPO8 (UniProt O15397) | inactive: 0.05 | inactive: -0.016 | inactive: -0.223 | inactive: -0.024 | inactive: 0.089 | inactive: -0.069 | inactive: -0.128 | inactive: 0.05 | inactive: -0.078 | inactive: -0.052 | inactive: -0.103 | inactive: -0.164 | inactive: -0.012 | inactive: 0.19 | inactive: 0 | inactive: -0.35 | inactive: 0.209 | inactive: 0.241 | inactive: 0.041 |
| IMMT isoform 2 (UniProt Q16891) | inactive: -0.057 | inactive: 0.043 | inactive: 0.051 | inactive: -0.022 | inactive: -0.07 | inactive: -0.021 | inactive: -0.026 | inactive: 0.021 | inactive: 0.007 | inactive: 0.047 | inactive: 0.053 | inactive: -0.011 | inactive: 0.022 | inactive: 0.054 | inactive: 0.051 | inactive: 0.015 | inactive: -0.028 | inactive: 0.058 | inactive: -0.106 |
| IFI30 (UniProt P13284) | inactive: 0.061 | inactive: 0.018 | inactive: -0.084 | inactive: 0.012 | inactive: -0.089 | inactive: 0.026 | inactive: 0.067 | inactive: 0.009 | inactive: -0.004 | inactive: 0.026 | inactive: 0.157 | inactive: 0.049 | inactive: 0.088 | inactive: -0.05 | inactive: 0.063 | inactive: 0.087 | inactive: -0.012 | inactive: 0.019 | inactive: -0.099 |
| ILVBL (UniProt A1L0T0) | inactive: 0.027 | inactive: 0.092 | inactive: -0.035 | inactive: -0.02 | inactive: 0.178 | inactive: -0.03 | inactive: 0.009 | inactive: -0.026 | inactive: 0.014 | inactive: 0.095 | inactive: 0.073 | inactive: 0.048 | inactive: -0.027 | inactive: -0.075 | inactive: -0.053 | inactive: 0.058 | inactive: -0.018 | inactive: 0.066 | inactive: 0.025 |
| IPO9 (UniProt Q96P70) | inactive: -0.021 | inactive: 0.073 | inactive: 0.01 | inactive: -0.061 | inactive: 0.023 | inactive: 0.096 | inactive: -0.035 | inactive: -0.024 | inactive: -0.02 | inactive: 0.052 | inactive: 0.024 | inactive: -0.082 | inactive: 0.113 | inactive: 0.01 | inactive: -0.079 | inactive: -0.039 | inactive: -0.068 | inactive: 0.012 | active: 0.447 |

Whole records as entered above. Values in the order: log2 fold change [1]	log2 fold change [2]	log2 fold change [3]	log2 fold change [4]	log2 fold change [5]	log2 fold change [6]	log2 fold change [7]	log2 fold change [8]	log2 fold change [9]	log2 fold change [10]	log2 fold change [11]	log2 fold change [12]	log2 fold change [13]	log2 fold change [14]	log2 fold change [15]	log2 fold change [16]	log2 fold change [17]	log2 fold change [18]	log2 fold change [19]
IRF2BPL (UniProt Q9H1B7) is listed with inactive: -0.021	inactive: 0.023	inactive: 0.068	inactive: 0.04	inactive: -0.03	inactive: 0.064	inactive: 0.089	inactive: 0.025	inactive: -0.041	inactive: -0.022	inactive: 0.031	inactive: 0.038	inactive: 0.008	inactive: 0.013	inactive: -0.18	inactive: 0.076	inactive: 0.063	inactive: -0.206	inactive: 0.093
ILF2 (UniProt Q12905) is listed with inactive: -0.098	inactive: -0.087	inactive: -0.214	inactive: 0.009	inactive: -0.088	inactive: 0.066	inactive: -0.035	inactive: -0.011	inactive: -0.005	inactive: -0.175	inactive: -0.095	inactive: 0.027	inactive: 0.155	inactive: 0.131	inactive: 0.082	inactive: 0.318	inactive: -0.024	inactive: 0.064	inactive: 0.204

— the supplement of paper PMC10849652
